Laboratory results: PubChem BioAssay AID743454 (Peter MacCallum Cancer Centre, 2014)

Purpose: 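Genes whose loss kills vorinostat-resistant colon cancer cells under vorinostat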 (primary screen)
System: human HCT116-VR colon cancer cells, selected for vorinostat resistance
Reagents: siRNA pool against human genes, 40 nM siRNA pool
Duration: vorinostat for 24 h, read-out about 72 h after transfection
Challenge: vorinostat at 2.5 µM final
Measured: 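Two measures, CellTiter-Fluor viability and luminescent caspase 3/7 activity, each as fold change against same-plate mock wells, mean of duplicates, then screen-wide robust z-score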
Reading the numbers: viability robust z-score: higher = more viable cells than screen typical; caspase robust z-score: higher = more caspase 3/7 activity than screen typical
Rule for the call: 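a knock-down is a hit when classed RV1 or RV2 for lowered viability, or CA1 or CA2 for caspase activation; those lethal without drug were dropped; hits were retested singly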
In all, the deposit lists about 18,000 reagents; this is a random part of them. 450 of them (2.5%) were called active. 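Single biological run; no consistent viability z cut-off exists, so the class columns, not z-scores, define the calls.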 A number with no mark means an inactive call.

target gene,viability hit class,caspase hit class,viability robust z-score,caspase robust z-score
LYRM9,no change,no change,-1.44,1.93
ACKR5,no change,no change,-1.09,-1.14
PNISR,no change,no change,0.65,-0.48
VWC2,no change,no change,-1.12,-0.86
TSLIG3B,no change,no change,0.81,0.56
GRM7,no change,no change,-0.22,-0.02
ZNF615,no change,no change,0.67,-0.18
DECR1,no change,no change,-1.3,-1.02
MAP3K1,no change,no change,-0.78,-0.87
BEX2,no change,no change,-0.82,0.36
C1QTNF9B,no change,no change,1.52,-0.07
PQBP1,no change,no change,-0.16,-0.08
KCNH8,no change,no change,-0.04,0.04
DGKZ,no change,no change,0.46,-0.44
MYOZ2,no change,no change,0.09,-1.11
PRUNE2,no change,no change,-0.87,0.16
CEND1,no change,no change,1.47,-0.9
MASP1,no change,no change,0.42,-0.29
MAP1B,no change,no change,0.78,-0.7
RPA1,no change,no change,-2.77,3.65
TSACC,no change,no change,0.96,1.8
NEDD4,no change,no change,-0.12,-0.24
SLC9A3,no change,no change,0.52,0.62

Laid out differently: 3 of the entries above
VWC2
- viability hit class: no change
- caspase hit class: no change
- viability robust z-score: -1.12
- caspase robust z-score: -0.86

TSLIG3B
- viability hit class: no change
- caspase hit class: no change
- viability robust z-score: 0.81
- caspase robust z-score: 0.56

GRM7
- viability hit class: no change
- caspase hit class: no change
- viability robust z-score: -0.22
- caspase robust z-score: -0.02
